Laboratory results: PubChem BioAssay AID1159584 (Peter MacCallum Cancer Centre, 2016)
Aim: 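Genes that CDH1-null MCF10A cells selectively depend on to survive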 (primary screen). Cell system: human MCF10A breast epithelial cells, parental and CDH1-null. Knock-down reagent: siRNA against human genes. Measured: 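ATP luminescence (CellTiter-Glo) viability per line relative to mean mock wells over all plates, and the ratio of CDH1-null to parental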. Reading the numbers: CDH1-null / parental viability ratio: higher = CDH1-null cells survive relatively better than parental; CDH1-null viability vs mock: higher = more viable CDH1-null cells; parental viability vs mock: higher = more viable parental cells.
This is a random part of about 18,000 deposited reagents. No sequences are given here. Not given: the amount of reagent, the time to read-out.

| gene symbol | PubChem SID | CDH1-null / parental viability ratio | CDH1-null viability vs mock (fraction of mock) | parental viability vs mock (fraction of mock) |
| --- | --- | --- | --- | --- |
| POP4 (POP4 ribonuclease P/MRP subunit) | SID134323791 | 0.94 | 0.92 | 0.98 |
| SPRED2 (sprouty related EVH1 domain containing 2) | SID134322441 | 0.76 | 0.62 | 0.82 |
| WDCP (WD repeat and coiled coil containing) | SID134318719 | 0.89 | 0.87 | 0.98 |
| P4HTM (prolyl 4-hydroxylase, transmembrane) | SID152150744 | 0.99 | 0.97 | 0.98 |
| RABIF (RAB interacting factor) | SID152155645 | 1.18 | 1.04 | 0.88 |
| OSBPL6 (oxysterol binding protein like 6) | SID134314182 | 1.04 | 0.94 | 0.9 |
| PNPLA8 (patatin like domain 8, phospholipase A2) | SID135621911 | 0.87 | 0.92 | 1.06 |
| TSPAN2 (tetraspanin 2) | SID152155675 | 0.98 | 0.87 | 0.89 |
| TMEM14C (transmembrane protein 14C) | SID135623955 | 1.1 | 0.75 | 0.68 |
| KHDC1 (KH domain containing 1) | SID135623177 | 0.9 | 0.81 | 0.9 |
| ARK2C | SID152155048 | 0.83 | 0.7 | 0.84 |
| ADAM7 (ADAM metallopeptidase domain 7) | SID152149256 | 1.27 | 0.81 | 0.64 |
| INSL6 (insulin like 6) | SID134323450 | 1.1 | 0.66 | 0.6 |
| VPS8 (VPS8 subunit of CORVET complex) | SID152150939 | 0.92 | 0.74 | 0.8 |
| ZNF683 (zinc finger protein 683) | SID135623511 | 0.98 | 0.9 | 0.92 |
| ABCA13 (ATP binding cassette subfamily A member 13) | SID135621697 | 0.86 | 0.72 | 0.84 |
| ARL6IP1 (ARL6 interacting reticulophagy regulator 1) | SID134310395 | 0.9 | 0.78 | 0.87 |
| UBA1 (ubiquitin like modifier activating enzyme 1) | SID152150752 | 1.15 | 0.78 | 0.68 |
| TFG (trafficking from ER to golgi regulator) | SID152147395 | 0.98 | 0.43 | 0.44 |
| DNAJC22 (DnaJ heat shock protein family (Hsp40) member C22) | SID134318651 | 0.86 | 0.76 | 0.88 |
| CFP (complement factor properdin) | SID135622361 | 1.08 | 0.64 | 0.59 |
| PPOX (protoporphyrinogen oxidase) | SID135621561 | 1.03 | 0.91 | 0.88 |
| TM9SF1 (transmembrane 9 superfamily member 1) | SID135623131 | 0.88 | 0.81 | 0.92 |
| PIK3C2G | SID152155956 | 1.15 | 0.94 | 0.82 |
| NAT14 (N-acetyltransferase 14 (putative)) | SID134314242 | 0.93 | 0.54 | 0.58 |
| MEX3B (mex-3 RNA binding family member B) | SID134325357 | 1.01 | 1.01 | 1 |
| ICA1 (islet cell autoantigen 1) | SID152156661 | 1.23 | 0.65 | 0.53 |

No new results follow: entries from further up.
| gene symbol | PubChem SID | CDH1-null / parental viability ratio | CDH1-null viability vs mock (fraction of mock) | parental viability vs mock (fraction of mock) |
| --- | --- | --- | --- | --- |
| ADAM7 (ADAM metallopeptidase domain 7) | SID152149256 | 1.27 | 0.81 | 0.64 |
| INSL6 (insulin like 6) | SID134323450 | 1.1 | 0.66 | 0.6 |
| VPS8 (VPS8 subunit of CORVET complex) | SID152150939 | 0.92 | 0.74 | 0.8 |

Next entries follow.
| gene symbol | PubChem SID | CDH1-null / parental viability ratio | CDH1-null viability vs mock (fraction of mock) | parental viability vs mock (fraction of mock) |
| --- | --- | --- | --- | --- |
| HYAL4 (hyaluronidase 4) | SID134316718 | 1.17 | 0.42 | 0.36 |
| DNAI3 (dynein axonemal intermediate chain 3) | SID135623222 | 0.93 | 0.92 | 0.99 |
| ZNF558 (zinc finger protein 558) | SID134319767 | 1.04 | 0.95 | 0.91 |
| DTL (denticleless E3 ubiquitin protein ligase adapter) | SID134324231 | 0.91 | 0.5 | 0.55 |
| CYP2A13 (cytochrome P450 family 2 subfamily A member 13) | SID134314766 | 0.73 | 0.56 | 0.77 |
| SRSF3 (serine and arginine rich splicing factor 3) | SID134328365 | 1 | 0.26 | 0.26 |
| IDI2 (isopentenyl-diphosphate delta isomerase 2) | SID134313335 | 0.92 | 0.72 | 0.78 |
| IMPA2 (inositol monophosphatase 2) | SID134313225 | 1.38 | 0.72 | 0.52 |
| MIP (major intrinsic protein of lens fiber) | SID152153939 | 1.02 | 0.6 | 0.59 |
| ADGRE1 (adhesion G protein-coupled receptor E1) | SID134310932 | 0.79 | 0.68 | 0.86 |
| RBM34 (RNA binding motif protein 34) | SID134325388 | 1.13 | 0.61 | 0.54 |
| TUBB7P (tubulin beta 7 pseudogene) | SID135621891 | 1.21 | 0.69 | 0.57 |
| NAT16 (N-acetyltransferase 16 (putative)) | SID134329339 | 1.16 | 0.93 | 0.8 |
| SFXN2 (sideroflexin 2) | SID134322398 | 1.02 | 0.61 | 0.6 |
| ADAM32 (ADAM metallopeptidase domain 32) | SID152156128 | 0.93 | 0.7 | 0.75 |
| ARRB1 (arrestin beta 1) | SID135622233 | 1.18 | 0.92 | 0.78 |
| RPL35 (ribosomal protein L35) | SID152152433 | 1.24 | 0.36 | 0.29 |
| FHOD1 (formin homology 2 domain containing 1) | SID152153273 | 1.08 | 0.53 | 0.49 |
| PABPC1L2B (poly(A) binding protein cytoplasmic 1 like 2B) | SID135625506 | 1.07 | 0.98 | 0.92 |
